According to patent publication US20100075343A1, “NOVEL PEPTIDES” (priority 2007, published 2010):
For at least one compound, name, drawing or mass did not settle the structure. Ends that are not written are not given here.

Key:
[1] = test system: antiserum against ESPGPERVW peptide of human VGF; format: binding; settings: 1, 10, and 100 pmol of the peptides
Protocol: Namely, to 100 μL of antiserum diluted 9×10^5 folds with RIA buffer, 100 μL of RIA buffer containing a fixed amount of [^125I]-labeled Peptide 1 (approximately 20000 cpm, 500-550 Bq, approximately 9 fmol in terms of peptide amount) and 100 μL of RIA buffer solutions each containing a sequentially diluted VGF-derived peptide were added, this was incubated at 4° C. for 40 hours, and the labeled Peptide 1 and VGF-derived peptide were competitively bound to the antibody in the antiserum. […] Reactions for non-specific binding were performed in quadruplicates, and the other reactions were performed in duplicates, and for each of the reactants, the immune complex was precipitated as in the above-mentioned antibody titer measurements, and its radioactivity (cpm) was measured. The average radioactivity of non-specific binding reaction is defined as non-specific binding level N, the radioactivity value for each VGF-derived peptide addition reaction is defined as Y, and the radioactivity value of maximum binding reaction is defined as Z. The percentage ratio (B/B0) of antiserum specific binding level (B) with peptide addition to the maximum binding level (B0), was determined using the following formula. […]

[2] = test system: blood vessels of apoaequorin-expressing mice; settings: final concentration of 10 μmol/L; reported in WO02/010371; cited from earlier work
[3] = test system: adrenal glands of apoaequorin-expressing mice; settings: final concentration of 10 μmol/L; reported in WO02/010371; cited from earlier work
[4] = test system: uterus of apoaequorin-expressing mice; settings: final concentration of 10 μmol/L; reported in WO02/010371; cited from earlier work

| Compound | inhibition of binding of the antiserum to labeled peptide [1] | luminescence in blood vessels [2] | luminescence in adrenal glands [3] | luminescence in uterus [4] |
| --- | --- | --- | --- | --- |
| C[C@H](N)C(=O)NCC(=O)N[C@H]1CSSC[C@@H](C(=O)O)NC(=O)[C@H](CO)NC(=O)[C@H]([C@@H](C)O)NC(=O)[C@H](Cc2ccccc2)NC(=O)[C@H]([C@@H](C)O)NC(=O)[C@H](CCCCN)NC(=O)[C@H](Cc2c[nH]c3ccccc23)NC(=O)[C@H](Cc2ccccc2)NC(=O)[C@H](Cc2ccccc2)NC(=O)[C@H](CC(N)=O)NC(=O)[C@H](CCCCN)NC1=O [somatostatin] | none of these peptides showed inhibition | – | – | – |
| RPPGFSPFR [bradykinin] | – | strong luminescence was observed | strong luminescence was observed | strong luminescence was observed |
